2 molecules from patent US20260226144A1 can be followed below.

Protein sequences, listed by entry. Tags and fused reporters are not part of them. Residues count along the entry.
UniProt P41271, residues 17-181: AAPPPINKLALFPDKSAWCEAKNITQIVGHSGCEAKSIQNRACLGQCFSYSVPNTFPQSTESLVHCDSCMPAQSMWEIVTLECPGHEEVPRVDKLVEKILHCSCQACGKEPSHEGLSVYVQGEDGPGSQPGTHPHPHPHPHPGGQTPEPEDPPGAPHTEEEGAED

These are yes or no findings as the source states them, for the method shown. Some results given as binding are weak or reduced against the parent protein; the word gives no strength.

The target of assay [1] is human NBL1 (neuroblastoma suppressor of tumorigenicity 1), recombinant (human) (UniProt P41271). The experiment in a line: ELISA, IgG1 format.
Assay [2] deals with cynomolgus ("cyno") NBL1 (cynomolgus). The experiment in a line: ELISA, IgG1 format. For orientation: An ELISA detects its analyte on a solid surface through an enzyme-linked reagent.

B1: Antibody YU1019-A12 (antibody, human IgG1, V domains shown)
VH: EVQLLESGPGLVKPSQTLSLTCTVSGGSISSGDYYWSWIRQPPGKGLEWIGYIYYSGSTYYNPSLKSRVTISVDTSKNQFSLKLSSVTAADTAVYYCARGRRLLLFHWGQGTTVTVSS
VL: QSVLTQPPSVSAAPGQKVTISCSGSGSSIGNNYVSWYQQVPGTPPKLLIYDNNKRASGIPDRFSGSKSGTSATLGITGLQTGDEADYYCGTWDNSLSAVVFGGGTKLTVL
In the case of B1, the binding result in assay [1] and in assay [2] was “binds” each time.

B2: Antibody YU1018-D06 (antibody, human IgG1, V domains shown)
VH: QVQLVESGPGLVKPSQTLSLTCTVSGGSISSGGYYWSWIRQHPGKGLEWIGYIYYSGSTYYNPSLKSRVTISVDTSKNQFSLKLSSVTAADTAVYYCARSGAAGIPWFDPWGQGTLVTVSS
VL: QSVLTQPPSVSAAPGQKVTISCSGSSSNIGNNYVSWYQQLPGTAPKLLIYENNERPSGIPDRLSGSKSGTSATLAITGLQTGDEADYYCGTWDSSLSAVVFGGGTKLTVL
Turning to B2, the binding result in assay [1] and in assay [2] was “binds” in each case.
